# Measured values taken from PubChem BioAssay AID445 (National Center for Advancing Translational Sciences (NCATS), 2006).
# This is one part of the list. The main result of the screen is listed elsewhere. These columns were measured beside it and carry no call. The list favours compounds with an active or inconclusive main result. The note in brackets gives the kind of curve behind each potency; many fits are weak.
# Assay: IkB Signaling
# Details: ABC-DLBCL IkBa-CBG/CBR dual luciferase ratio (green luciferase fused to IkBa over red control in OCI-Ly3 lymphoma cells), 4 h
# Summary of the method: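 In this assay, an IκBα–CBG68 fusion accumulates when IKK-driven degradation is blocked; native CBR normalizes for cell number. OCI-Ly3 cells were treated 4 h with compound and doxycycline, then green and red light read after Chroma-Glo addition.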
# [1] = measured here: control luc red channel unless noted
# [2] = measured here: IkB-luc green channel
# [3] = measured here: control luc red channel
smiles,measurement,setting,value
COc1ccc2[nH]cc(CCN=C(NC(=O)c3ccccc3C)Nc3nc(C)cc(C)n3)c2c1,AC50,[1],"10 µM [falling, partial curve, poor fit]"
O=C(Nc1ccc(C(F)(F)F)cc1)C(Cc1ccccc1)n1cccc1 (stereo unspecified),AC50,[1],"31.6 µM [falling, partial curve]"
O=C(NCCCN1CCN(c2ccccc2F)CC1)c1ccc2nc(N3CCCCC3)sc2c1,AC50,[1],"20 µM [falling, partial curve]"
O=C(NCc1ccco1)C1CCN(C(=O)c2cc3sccc3n2Cc2ccc(F)cc2)CC1,AC50,[1],"15.8 µM [falling, partial curve]"
Cc1cc(NC(=O)c2ccc(NC(=O)CCS(=O)(=O)c3cccs3)cc2)ccc1Br,AC50,[1],"3.16 µM [falling, full curve]"
Cc1c(CCNC(=O)C(C)(C)C)sc2nc(-c3ccc(F)cc3)nn12,AC50,[1],"31.6 µM [falling, single point]"
COc1ccccc1NC(=O)C1=C(C)Nc2nc(SCc3ccccc3)nn2C1c1ccncc1 (stereo unspecified),AC50,[1],"0.251 µM [falling, partial curve]"
COc1ccc(Cl)cc1NC(=O)CCn1c(=O)oc2ccccc21,AC50,[1],"39.8 µM [falling, single point]"
c1cc2c(cc1C1CCCCC1)c1c3n2CCN[C@H]3CCC1,AC50,[1],"31.6 µM [falling, partial curve]"
CCN(C(=O)c1cc2c(s1)-c1ccccc1OC2)c1cccc(C(F)(F)F)c1,AC50,[1],"31.6 µM [falling, single point]"
O=C(CSc1nccn1Cc1ccccc1)Nc1ccc2c(c1)OCCO2,AC50,[1],"1 µM [rising, single point]"
Cc1ccc(CNC(=O)Cn2cccc2C(=O)c2ccccc2C)cc1,AC50,[1],"15.8 µM [falling, partial curve]"
N#Cc1c[nH]n2c(NC3CCCC3)c(-c3ccc(Cl)cc3)nc12,AC50,[1],"31.6 µM [falling, single point]"
COc1ccc(C2N(c3cc(Cl)ccc3OC)C(=O)C3CCCN32)c(OC)c1 (stereo unspecified),AC50,[1],"6.31 µM [rising, single point] [measured here: IkB-luc green channel]"
Cc1ccc(NS(=O)(=O)c2ccc(-c3cc(C)no3)cc2)c(Br)c1,AC50,[1],"7.94 µM [falling, partial curve]"
Cc1ccc(CCNC(=O)c2c(C)nn(-c3ccc(F)cc3)c2-n2cccc2)cc1,AC50,[1],"25.1 µM [falling, single point]"
CC1=C(C(=O)Nc2ccccc2)C(c2ccc(O)cc2)n2nc(SCc3ccccc3)nc2N1 (stereo unspecified),AC50,[1],"7.94 µM [falling, single point]"
CCOc1ccccc1NC(=O)N1CCC2(CC1)Oc1ccccc1C(=O)N2Cc1ccccc1F,AC50,[1],"12.6 µM [falling, partial curve]"
CCOC(=O)N1CCN(S(=O)(=O)c2ccc(OCC)c(C)c2)CC1,AC50,[1],"12.6 µM [falling, partial curve]"
COCCn1c(=O)cnc2cnc(Nc3ccccc3)nc21,AC50,[2],"3.98 µM [falling, partial curve]"
same,AC50,[3],"3.98 µM [falling, partial curve]"
Cc1ccc(OCC(=O)Nc2cccc(C(=O)OCc3cc(=O)n4c(C)csc4n3)c2)cc1,AC50,[1],"2.51 µM [falling, full curve]"
CC(=O)c1ccc(N2CCN(c3ncnc4c3cnn4-c3cc(Cl)ccc3C)CC2)cc1,AC50,[1],"6.31 µM [falling, partial curve]"
O=C(c1ccc2c(c1)N(Cc1ccc(Cl)cc1)C(=O)c1ccccc1S2(=O)=O)N1CCN(c2ccccn2)CC1,AC50,[1],"7.94 µM [falling, full curve, poor fit]"
Cn1cccc1C(=O)Nc1nc(-c2ccccn2)cs1,AC50,[1],"3.16 µM [falling, full curve]"
O=C(Nc1cc(Cl)cc(Cl)c1)c1ccc(F)c(S(=O)(=O)N2CCN(c3ccccc3F)CC2)c1,AC50,[1],"15.8 µM [falling, partial curve]"
CCOc1ccc(NC(=O)N2CCC(N3CCCCC3)CC2)cc1,AC50,[1],"0.316 µM [falling, full curve, poor fit]"
Nc1ccccc1NC(=O)c1ccccc1,AC50,[2],"25.1 µM [rising, partial curve]"
same,AC50,[3],"20 µM [rising, partial curve]"
Cc1cccc(CSc2ncccc2C(=O)O)c1,AC50,[1],"2.51 µM [rising, full curve]"
Cc1ccc(NC(=O)C2CCCN(S(=O)(=O)c3c(C)noc3/C=C/N(C)C)C2)cc1F (stereo unspecified),AC50,[1],"15.8 µM [falling, partial curve]"
Cc1cc(C)c(S(=O)(=O)Nc2ccccc2C(F)(F)F)c(C)c1,AC50,[1],"39.8 µM [falling, partial curve]"
COc1ccc(-n2nc3c(N4CCCC(C(=O)NCCc5ccccc5C)C4)nnc(C)c3c2C)cc1 (stereo unspecified),AC50,[1],"10 µM [falling, partial curve]"
COc1ccc(S(=O)(=O)N(CC(=O)Nc2ccc3c(c2)OCO3)c2ccccc2OC)cc1,AC50,[1],"3.98 µM [falling, full curve]"
O=S(=O)(c1ccc(-c2cnc(C3CC3)o2)cc1)N1CCN(c2ccccc2)CC1,AC50,[1],"3.16 µM [falling, partial curve, poor fit]"
CC1=C(C(=O)OC2CCCC2)C(c2ccccc2C(F)(F)F)CC(=O)N1 (stereo unspecified),AC50,[1],"39.8 µM [falling, partial curve]"
COc1cccc(NC(=O)Cn2c(=O)n(-c3ccccc3)c(=O)c3c2c2cc(OC)ccc2n3C)c1,AC50,[1],"1.26 µM [falling, full curve]"
COc1ccc(C2c3c(n(C)c4ccccc34)C(=O)N2CC(=O)Nc2ccc(F)cc2)cc1 (stereo unspecified),AC50,[1],"10 µM [falling, partial curve]"
CCOc1ccc(-c2nc(SCC(=O)Nc3cc(F)ccc3F)n3[nH]c(=O)cc3n2)cc1,AC50,[1],"2.51 µM [rising, partial curve]"
COc1ccc(-c2ccc(=O)n(CC(=O)Nc3ccc(OC)c(OC)c3)n2)cc1,AC50,[1],"7.94 µM [falling, full curve]"
CCC(C)NC(=O)c1cnc2n(c1=O)CCS2 (stereo unspecified),AC50,[1],"12.6 µM [falling, partial curve]"

# 2 entries picked at random from those above, as already listed:
smiles,measurement,setting,value
CCOc1ccc(NC(=O)N2CCC(N3CCCCC3)CC2)cc1,AC50,[1],"0.316 µM [falling, full curve, poor fit]"
CC1=C(C(=O)OC2CCCC2)C(c2ccccc2C(F)(F)F)CC(=O)N1 (stereo unspecified),AC50,[1],"39.8 µM [falling, partial curve]"
